Experimental data: patent US20250179208A1
No constants are given. Whether binding was seen depends on the method and setting. Some binding calls cover weakened binding; strength is not graded here.

Protein sequences, listed by entry. Tags and fused reporters are not part of them. Residues count along the entry.
UniProt P27487, residues 29-766: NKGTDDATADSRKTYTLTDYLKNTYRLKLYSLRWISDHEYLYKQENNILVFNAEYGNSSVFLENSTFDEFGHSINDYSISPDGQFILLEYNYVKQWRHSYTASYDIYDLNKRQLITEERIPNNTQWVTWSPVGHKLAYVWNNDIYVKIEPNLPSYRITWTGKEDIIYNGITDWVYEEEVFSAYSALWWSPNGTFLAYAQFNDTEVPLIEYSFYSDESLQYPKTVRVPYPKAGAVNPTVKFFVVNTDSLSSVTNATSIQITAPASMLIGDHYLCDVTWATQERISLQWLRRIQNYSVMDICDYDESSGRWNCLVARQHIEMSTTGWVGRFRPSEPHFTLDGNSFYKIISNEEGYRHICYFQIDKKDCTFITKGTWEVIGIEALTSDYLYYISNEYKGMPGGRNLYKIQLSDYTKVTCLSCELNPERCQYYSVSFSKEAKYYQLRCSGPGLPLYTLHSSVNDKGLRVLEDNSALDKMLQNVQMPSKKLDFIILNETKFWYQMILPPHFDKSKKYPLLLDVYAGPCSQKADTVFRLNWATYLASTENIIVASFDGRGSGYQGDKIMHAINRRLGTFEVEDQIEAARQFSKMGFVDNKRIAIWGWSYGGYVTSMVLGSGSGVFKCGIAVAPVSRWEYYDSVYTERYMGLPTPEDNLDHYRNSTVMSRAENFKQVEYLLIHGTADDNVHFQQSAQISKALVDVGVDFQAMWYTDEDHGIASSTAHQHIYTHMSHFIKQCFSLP

Assays:
[1] = target: CD26 protein (recombinant human CD26) (human) (UniProt P27487); assay: dot blot, antibody spotted on NC membrane, probed with CD26-HRP
[2] = target: CD26 protein (recombinant human CD26) (human) (UniProt P27487); assay: BLI (Octet)
[3] = target: CD26 protein (recombinant human CD26) (human) (UniProt P27487); assay: BLI (Octet), biotinylated 19G294 on SA sensor, 400 nM CD3 then 400 nM CD3 with 400 nM CD26
[4] = target: CD26 protein (recombinant human CD26) (human) (UniProt P27487); assay: BLI (Octet), summary of Table 7
[5] = target: CD26 protein (recombinant human CD26) (human) (UniProt P27487); assay: BLI (Octet), biotinylated 19G294 on SA sensor, 400 nM CD26; on H9 CD26 added in 400 nM CD3 solution
[6] = target: CD26 protein (recombinant human CD26) (human) (UniProt P27487); assay: dot blot: sample spotted on NC membrane, probed with CD26-HRP, chemiluminescence
[7] = target: CD26 protein (recombinant human CD26) (human) (UniProt P27487); assay: BLI (Octet), biotinylated CD26 on SA sensor

Measured: binding

B1: 19G294 (anti-CD26-CD3 humanized bispecific antibody derived from No. 62 mouse antibody) (bispecific antibody)
chain: DIVMTQSPSSLSVTPGERVSISCRSDKSLLHSNGNTYLYWFLQKPGQSPQVLIYRMSNLASGVPDRFSGSGSGTDFTLTISRVEAEDVGVYYCFQQLEYPYTFGQGTKLEIKGGGGSGGGGSGGGGSEVQLVQSGAELVKPGASVKLSCAASGFNIKDTYIYWVRQAPGQGLEWVGRIEPMNGNTKYDPKFQGRFTMTANTSKNTAYLQLSSLRSEDTAVYYCSRGGWLLLYVMDYWGQGTLVTVSSGGGGSDVQLVQSGAEVKKPGASVKVSCKASGYTFTRYTMHWVRQAPGQGLEWIGYINPSRGYTNYADSVKGRFTITTDKSTSTAYMELSSLRSEDTATYYCARYYDDHYCLDYWGQGTTVTVSSGGGGSGGGGSGGGGSDIVLTQSPATLSLSPGERATLSCRASQSVSYMNWYQQKPGKAPKRWIYDTSKVASGVPARFSGSGSGTDYSLTINSLEAEDAATYYCQQWSSNPLTFGGGTKVEIK
binds: [1] | [2] | [3] | [4] | [5] | [6] | [7]
